PubChem BioAssay AID493014 (National Center for Advancing Translational Sciences (NCATS), 2011)
The campaign covered roughly 340,000 compounds. About 170 (0.05%) were called active. Inconclusive results, whose numbers are uncertain, are shown with a selection of clear calls. Calls follow the shape of the dose curve; as a rule, active = well fitted inhibition curve with a large enough effect in the signal ratio, with a control signal flat (not every such curve was filed as active); inconclusive = small, poorly fitted or top-dose-only effect, or effect the other way, or a change in a side signal; inactive = flat fitted curve, though single readings scatter; the % refers to the signal ratio. A potency beside an inconclusive call is a rough fit, not a confirmed value.

Experiment: qHTS Assay to Find Inhibitors of Chronic Active B-Cell Receptor Signaling;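 as to activity change, negative = inhibition: plate controls were basal doxycycline-induced cells for no effect and cells given 10 µM MG132 for full effect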
Conditions: ABC-DLBCL IkBa-CBG/CBR reporter, luminescence ratio (green luciferase fused to IkBa over red control in TMD8 lymphoma cells), 4 h; activity change, negative = inhibition: at 46.1 µM (top of the series)
Method in brief: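 Compounds up to 46 uM were incubated four hours with TMD8 cells whose green CBG68 luciferase is fused to IkappaBalpha; red CBR luminescence normalised the signal, and concentration-effect curves were fitted to fusion, red and ratio data.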
Potency is read from the fitted curve at half-maximal effect.

| SMILES | activity change, negative = inhibition | Potency |
| --- | --- | --- |
| CC(=O)c1cc(CN2C(=O)c3ccccc3C2=O)cs1 | inactive: -7.7% | – |
| CC1=C(CO)C(=O)OC([C@@H](C)C2CC[C@H]3C4C[C@H]5O[C@]56[C@@H](O)C=CC(=O)[C@]6(C)C4CC[C@]23C)C1 (stereo partly specified) | – | inconclusive: 3.16 µM [falling, partial curve] |
| Cc1ccc(C(C)NC(=O)c2c(C)noc2C)cc1C (stereo unspecified) | inconclusive: 7.29% | – |
| O=C(NCc1ccc2c(c1)OCO2)c1ccc2c(c1)N(Cc1c(F)cccc1Cl)C(=O)CS2 | inconclusive: -4.4% | – |
| COc1cc(C2C(C#N)=C(N)Oc3n[nH]c(-c4cccnc4)c32)cc(Br)c1O (stereo unspecified) | inconclusive: 6.26% | – |
| CC(C)(C)C(=O)N1CCN(c2nc3ccccc3o2)CC1 | inconclusive: 9.74% | – |
| CCOc1ccc(-c2nnc(-c3cccnc3)o2)cc1OCC | inactive: 0.795% | – |
| Cc1[nH]c2ccc(F)cc2c1CCN(Cc1cccnc1)C(=S)NC(C)(C)C | inconclusive: 0.491% | – |
| CC1(C)CC(=O)C2=C(C1)OC(N)=C(C#N)C2c1cc2c(cc1[N+](=O)[O-])OCO2 (stereo unspecified) | inactive: -0.0535% | – |
| O=C(CSC1=NCCS1)Nc1nc(-c2ccccc2)cs1 | inconclusive: -21.8% | – |
| O=C1CCc2ccccc2N1 | inconclusive: 11.3% | – |
| CCC(=O)OCc1c(C(F)(F)F)nn(C)c1Sc1ccc(F)cc1 | inconclusive: 10.8% | – |
| Cc1ccc(C)c(N=Cc2c(O)c3ccccc3oc2=O)c1 | inconclusive: -11.4% | – |
| CSCCCNC(=O)c1ccc(OC2CCN(C(=O)c3cccnc3)CC2)cc1 | inconclusive: -1.26% | – |
| O=C(COC(=O)c1cc([N+](=O)[O-])ccc1N1CCOCC1)Nc1cccc(F)c1 | inconclusive: -7.14% | – |
| COC(=O)CC1=C(C(=O)OC)[C@@H](c2ccccc2[N+](=O)[O-])C(C#N)=C(N)O1 | inconclusive: -7.18% | – |
| CCSc1nnc(NC(=O)c2ccc3ccccc3n2)s1 | – | inconclusive: 5.62 µM [falling, single point] |
| CCN1CCN(Cc2ccc(NC(=O)c3cc(NC(=O)c4cncc(-c5ccc(C#N)cc5)c4)cc(OC)c3)cc2C(F)(F)F)CC1 | – | inconclusive: 35.5 µM [rising, partial curve, poor fit] |
| NC(=O)CNC(=O)C1CCCc2c1[nH]c1ccc(Cl)cc21 (stereo unspecified) | inactive: 1.39% | – |
| CNC(=S)NNC(=O)c1ccc(=O)n(Cc2ccc(Cl)cc2Cl)c1 | inactive: 0.751% | – |
| CCOc1ccc(-n2c(SCC(=O)N3CCC(C(=O)O)CC3)nc3ccccc3c2=O)cc1 | – | inconclusive: 7.94 µM [falling, partial curve, poor fit] |
| Cc1ccc(S(=O)(=O)Oc2ccc(C3C4=C(CCCC4=O)N(CCC(=O)O)C4=C3C(=O)CCC4)cc2Cl)cc1 | inconclusive: 6.46% | – |
| COc1cc(/C=C/c2sc3ccccc3[n+]2CCCS(=O)(=O)[O-])ccc1O | inconclusive: 23.8% | – |
| CC(/C=C/C=C/c1ccccc1)=N\NC(=O)c1cccnc1 | – | inconclusive: 35.5 µM [falling, single point] |
| COc1cc(S(=O)(=O)NC2CCCC2)ccc1F | inconclusive: 6.91% | – |
| Cc1nn(C)c(Cl)c1NC(=O)OCc1ccc(Cl)cc1Cl | inactive: 0.553% | – |

A draw from above in order of molecular weight, ascending.

| SMILES | activity change, negative = inhibition | Potency |
| --- | --- | --- |
| COC(=O)CC1=C(C(=O)OC)[C@@H](c2ccccc2[N+](=O)[O-])C(C#N)=C(N)O1 | inconclusive: -7.18% | – |
| COc1cc(/C=C/c2sc3ccccc3[n+]2CCCS(=O)(=O)[O-])ccc1O | inconclusive: 23.8% | – |
| CCN1CCN(Cc2ccc(NC(=O)c3cc(NC(=O)c4cncc(-c5ccc(C#N)cc5)c4)cc(OC)c3)cc2C(F)(F)F)CC1 | – | inconclusive: 35.5 µM [rising, partial curve, poor fit] |

(cont.)

| SMILES | activity change, negative = inhibition | Potency |
| --- | --- | --- |
| O=C(Nc1cccc(C(F)(F)F)c1)c1cc2c(s1)-c1ccccc1OC2 | inconclusive: -3.59% | – |
| Cc1ccc(NC(=O)Nc2cccc(Cl)c2)c(C(=O)O)c1 | – | inconclusive: 22.4 µM [falling, partial curve] |
| COC(=O)CCCCCCCCC(=O)Nc1nc2ccccc2s1 | – | inconclusive: 7.94 µM [falling, partial curve] |
| Cc1cc(C(=O)N2CCN(c3ccc([N+](=O)[O-])cc3)CC2)co1 | inactive: -0.472% | – |
| CCOc1ccccc1-c1nnc(CS(=O)(=O)c2ccccc2)o1 | – | inconclusive: 22.4 µM [falling, single point] |
| CCN(CC)C(=O)Cn1c(=O)n(-c2ccc(Cl)c(Cl)c2)c(=O)c2c(C)c(C(=O)N(CC)CC)sc21 | inactive: 7.63% | – |
| Cc1cccc(NC(=O)CC23CC4CC(C2)CC(n2nnc(C)n2)(C4)C3)c1 | inconclusive: 11.5% | – |
| Fc1ccc(Br)cc1C1C=C(c2ccc(Br)s2)Nc2ncnn21 (stereo unspecified) | inconclusive: 6.81% | – |
| Cc1ccccc1Nc1ncnc2c1cnn2Cc1ccccc1 | – | inconclusive: 15.8 µM [falling, partial curve] |
| c1ccc(-c2nc[nH]c2-c2ccccc2)cc1 | inconclusive: -8.16% | – |
| COc1ccc(C)cc1-n1nnnc1SCc1nc2ccccc2s1 | inconclusive: 2.56% | – |
| COc1ccc(/C=N/NC(=O)c2cccc([N+](=O)[O-])c2)cc1OC(=O)c1ccccc1 | inactive: -0.155% | – |
| COc1cc2[nH]c(=O)n(C3CCCCC3)c(=O)c2cc1OC | – | inconclusive: 11.6 µM [rising, partial curve, poor fit] |
| CCN(CCNC(=O)C1CCN(Cc2nc(-c3ccc(Cl)cc3)oc2C)CC1)c1ccccc1 | inactive: -1.59% | – |
| COc1ccc(NC(=O)COc2cc(C)cc(C)c2)cc1S(=O)(=O)N1CCCCC1 | inactive: 5.55% | – |
| CN(C)C=NC(=O)c1cc(C(=O)c2ccc(C(C)(C)C)cc2)c[nH]1 | inconclusive: -2.95% | – |
| Cn1c2ccccc2c2ncn(Cc3ccc(F)cc3)c(=O)c21 | inactive: 1.04% | – |
| COc1ccc(C)cc1NC(=O)CN1c2cccc3cccc(c23)S1(=O)=O | inactive: -10.2% | – |
| O=C(CSc1ccsc1[N+](=O)[O-])N1CCN(c2ccc(Cl)cc2)CC1 | inconclusive: 18.3% | – |
| Cc1ccc(-n2cc(CN3CCNC(=O)CC3)c(-c3cccc(C)c3)n2)cc1 | – | inconclusive: 35.5 µM [falling, single point] |
| CCS(=O)(=O)c1ccc2oc(Nc3cc(Cl)ccc3OC)nc2c1 | inconclusive: 0.685% | – |
| Oc1ccc(-c2nc(-c3ccc(F)cc3)c(-c3ccncc3)[nH]2)cc1 | inconclusive: -22.8% | – |
| Cc1onc(-c2ccccc2)c1C(=O)Nc1nnc(COc2ccc(Cl)cc2)s1 | inconclusive: 17.7% | – |
| CCN(CC(=O)Nc1ccccc1OC)C(=O)CC1CC2CCC1C2 (stereo unspecified) | inconclusive: -0.148% | – |
| CC1=CC2=NC(=O)/C(=C/c3coc4ccc(Cl)cc4c3=O)C(=N)N2O1 | – | inconclusive: 2.24 µM [rising, full curve, poor fit] |
